{"source": "paper doi:10.1101/2025.09.11.675713", "molecules": {"B1": {"name": "Apoptotic chromatin condensation inducer in the nucleus (ACIN1) (protein, UniProt Q9UKV3 1-1341)", "chain": "MWRRKHPRTSGGTRGVLSGNRGVEYGSGRGHLGTFEGRWRKLPKMPEAVGTDPSTSRKMAELEEVTLDGKPLQALRVTDLKAALEQRGLAKSGQKSALVKRLKGALMLENLQKHSTPHAAFQPNSQIGEEMSQNSFIKQYLEKQQELLRQRLEREAREAAELEEASAESEDEMIHPEGVASLLPPDFQSSLERPELELSRHSPRKSSSISEEKGDSDDEKPRKGERRSSRVRQARAAKLSEGSQPAEEEEDQETPSRNLRVRADRNLKTEEEEEEEEEEEEDDEEEEGDDEGQKSREAPILKEFKEEGEEIPRVKPEEMMDERPKTRSQEQEVLERGGRFTRSQEEARKSHLARQQQEKEMKTTSPLEEEEREIKSSQGLKEKSKSPSPPRLTEDRKKASLVALPEQTASEEETPPPLLTKEASSPPPHPQLHSEEEIEPMEGPAPAVLIQLSPPNTDADTRELLVSQHTVQLVGGLSPLSSPSDTKAESPAEKVPEESVLPLVQKSTLADYSAQKDLEPESDRSAQPLPLKIEELALAKGITEECLKQPSLEQKEGRRASHTLLPSHRLKQSADSSSSRSSSSSSSSSRSRSRSPDSSGSRSHSPLRSKQRDVAQARTHANPRGRPKMGSRSTSESRSRSRSRSRSASSNSRKSLSPGVSRDSSTSYTETKDPSSGQEVATPPVPQLQVCEPKERTSTSSSSVQARRLSQPESAEKHVTQRLQPERGSPKKCEAEEAEPPAATQPQTSETQTSHLPESERIHHTVEEKEEVTMDTSENRPENDVPEPPMPIADQVSNDDRPEGSVEDEEKKESSLPKSFKRKISVVSATKGVPAGNSDTEGGQPGRKRRWGASTATTQKKPSISITTESLKSLIPDIKPLAGQEAVVDLHADDSRISEDETERNGDDGTHDKGLKICRTVTQVVPAEGQENGQREEEEEEKEPEAEPPVPPQVSVEVALPPPAEHEVKKVTLGDTLTRRSISQQKSGVSITIDDPVRTAQVPSPPRGKISNIVHISNLVRPFTLGQLKELLGRTGTLVEEAFWIDKIKSHCFVTYSTVEEAVATRTALHGVKWPQSNPKFLCADYAEQDELDYHRGLLVDRPSETKTEEQGIPRPLHPPPPPPVQPPQHPRAEQREQERAVREQWAEREREMERRERTRSEREWDRDKVREGPRSRSRSRDRRRKERAKSKEKKSEKKEKAQEEPPAKLLDDLFRKTKAAPCIYWLPLTDSQIVQKEAERAERAKEREKRRKEQEEEEQKEREKEAERERNRQLEREKRREHSRERDRERERERERDRGDRDRDRERDRERGRERDRRDTKRHSRSRSRSTPVRDRGGRR"}, "B2": {"name": "SRRM1 (protein, UniProt Q8IYB3 1-904)", "chain": "MDAGFFRGTSAEQDNRFSNKQKKLLKQLKFAECLEKKVDMSKVNLEVIKPWITKRVTEILGFEDDVVIEFIFNQLEVKNPDSKMMQINLTGFLNGKNAREFMGELWPLLLSAQENIAGIPSAFLELKKEEIKQRQIEQEKLASMKKQDEDKDKRDKEEKESSREKRERSRSPRRRKSRSPSPRRRSSPVRRERKRSHSRSPRHRTKSRSPSPAPEKKEKTPELPEPSVKVKEPSVQEATSTSDILKVPKPEPIPEPKEPSPEKNSKKEKEKEKTRPRSRSRSKSRSRTRSRSPSHTRPRRRHRSRSRSYSPRRRPSPRRRPSPRRRTPPRRMPPPPRHRRSRSPVRRRRRSSASLSGSSSSSSSSRSRSPPKKPPKRTSSPPRKTRRLSPSASPPRRRHRPSPPATPPPKTRHSPTPQQSNRTRKSRVSVSPGRTSGKVTKHKGTEKRESPSPAPKPRKVELSESEEDKGGKMAAADSVQQRRQYRRQNQQSSSDSGSSSSSEDERPKRSHVKNGEVGRRRRHSPSRSASPSPRKRQKETSPRGRRRRSPSPPPTRRRRSPSPAPPPRRRRTPTPPPRRRTPSPPPRRRSPSPRRYSPPIQRRYSPSPPPKRRTASPPPPPKRRASPSPPPKRRVSHSPPPKQRSSPVTKRRSPSLSSKHRKGSSPSRSTREARSPQPNKRHSPSPRPRAPQTSSSPPPVRRGASSSPQRRQSPSPSTRPIRRVSRTPEPKKIKKAASPSPQSVRRVSSSRSVSGSPEPAAKKPPAPPSPVQSQSPSTNWSPAVPVKKAKSPTPSPSPPRNSDQEGGGKKKKKKKDKKHKKDKKHKKHKKHKKEKAVAAAAAAAVTPAAIAAATTTLAQEEPVAAPEPKKETESEAEDNLDDLEKHLREKALRSMRKAQVSPQS"}, "B3": {"name": "U2AF1 (protein, UniProt Q01081 1-240)", "chain": "MAEYLASIFGTEKDKVNCSFYFKIGACRHGDRCSRLHNKPTFSQTIALLNIYRNPQNSSQSADGLRCAVSDVEMQEHYDEFFEEVFTEMEEKYGEVEEMNVCDNLGDHLVGNVYVKFRREEDAEKAVIDLNNRWFNGQPIHAELSPVTDFREACCRQYEMGECTRGGFCNFMHLKPISRELRRELYGRRRKKHRSRSRSRERRSRSRDRGRGGGGGGGGGGGGRERDRRRSRDRERSGRF"}, "B4": {"name": "DHX8 (protein, UniProt Q14562 1-1220)", "chain": "MAVAVAMAGALIGSEPGPAEELAKLEYLSLVSKVCTELDNHLGINDKDLAEFVISLAEKNTTFDTFKASLVKNGAEFTDSLISNLLRLIQTMRPPAKPSTSKDPVVKPKTEKEKLKELFPVLCQPDNPSVRTMLDEDDVKVAVDVLKELEALMPSAAGQEKQRDAEHRDRTKKKKRSRSRDRNRDRDRDRERNRDRDHKRRHRSRSRSRSRTRERNKVKSRYRSRSRSQSPPKDRKDRDKYGERNLDRWRDKHVDRPPPEEPTIGDIYNGKVTSIMQFGCFVQLEGLRKRWEGLVHISELRREGRVANVADVVSKGQRVKVKVLSFTGTKTSLSMKDVDQETGEDLNPNRRRNLVGETNEETSMRNPDRPTHLSLVSAPEVEDDSLERKRLTRISDPEKWEIKQMIAANVLSKEEFPDFDEETGILPKVDDEEDEDLEIELVEEEPPFLRGHTKQSMDMSPIKIVKNPDGSLSQAAMMQSALAKERRELKQAQREAEMDSIPMGLNKHWVDPLPDAEGRQIAANMRGIGMMPNDIPEWKKHAFGGNKASYGKKTQMSILEQRESLPIYKLKEQLVQAVHDNQILIVIGETGSGKTTQITQYLAEAGYTSRGKIGCTQPRRVAAMSVAKRVSEEFGCCLGQEVGYTIRFEDCTSPETVIKYMTDGMLLRECLIDPDLTQYAIIMLDEAHERTIHTDVLFGLLKKTVQKRQDMKLIVTSATLDAVKFSQYFYEAPIFTIPGRTYPVEILYTKEPETDYLDASLITVMQIHLTEPPGDILVFLTGQEEIDTACEILYERMKSLGPDVPELIILPVYSALPSEMQTRIFDPAPPGSRKVVIATNIAETSLTIDGIYYVVDPGFVKQKVYNSKTGIDQLVVTPISQAQAKQRAGRAGRTGPGKCYRLYTERAYRDEMLTTNVPEIQRTNLASTVLSLKAMGINDLLSFDFMDAPPMETLITAMEQLYTLGALDDEGLLTRLGRRMAEFPLEPMLCKMLIMSVHLGCSEEMLTIVSMLSVQNVFYRPKDKQALADQKKAKFHQTEGDHLTLLAVYNSWKNNKFSNPWCYENFIQARSLRRAQDIRKQMLGIMDRHKLDVVSCGKSTVRVQKAICSGFFRNAAKKDPQEGYRTLIDQQVVYIHPSSALFNRQPEWVVYHELVLTTKEYMREVTTIDPRWLVEFAPAFFKVSDPTKLSKQKKQQRLEPLYNRYEEPNAWRISRAFRRR"}}, "note": "These are yes or no findings as the source states them, for the method shown. Binding seen in cells or lysates may run through a third protein. A yes stands for co-enrichment or nearness to the bait. Other partners may have been found. For some of these results: A no says only that the protein was not detected with the bait.", "data": [{"target": "SRRM2 S1444P, endogenously mVenus-labeled (human (endogenous in HEK 293T)) (UniProt Q9UQ35)", "assay": "affinity purification with mass spectrometry", "values": [{"molecule": "B1", "binding": "no binding"}]}, {"target": "Serine/Arginine Repetitive Matrix Protein 2 (SRRM2), endogenously mVenus-labeled, wild type (human (endogenous in HEK 293T)) (UniProt Q9UQ35)", "assay": "affinity purification with mass spectrometry", "values": [{"molecule": "SON (from UniProt P18583 1-2426)", "binding": "binds"}, {"molecule": "EIF4A3 (from UniProt P38919 1-411)", "binding": "binds"}, {"molecule": "B2", "binding": "binds"}, {"molecule": "B3", "binding": "binds"}, {"molecule": "B4", "binding": "binds"}, {"molecule": "B1", "binding": "binds"}]}]}
